# Laboratory results as given in PMC4728409.
# Amino acid sequences for entries named in this document (tags omitted).
# UniProt P38398: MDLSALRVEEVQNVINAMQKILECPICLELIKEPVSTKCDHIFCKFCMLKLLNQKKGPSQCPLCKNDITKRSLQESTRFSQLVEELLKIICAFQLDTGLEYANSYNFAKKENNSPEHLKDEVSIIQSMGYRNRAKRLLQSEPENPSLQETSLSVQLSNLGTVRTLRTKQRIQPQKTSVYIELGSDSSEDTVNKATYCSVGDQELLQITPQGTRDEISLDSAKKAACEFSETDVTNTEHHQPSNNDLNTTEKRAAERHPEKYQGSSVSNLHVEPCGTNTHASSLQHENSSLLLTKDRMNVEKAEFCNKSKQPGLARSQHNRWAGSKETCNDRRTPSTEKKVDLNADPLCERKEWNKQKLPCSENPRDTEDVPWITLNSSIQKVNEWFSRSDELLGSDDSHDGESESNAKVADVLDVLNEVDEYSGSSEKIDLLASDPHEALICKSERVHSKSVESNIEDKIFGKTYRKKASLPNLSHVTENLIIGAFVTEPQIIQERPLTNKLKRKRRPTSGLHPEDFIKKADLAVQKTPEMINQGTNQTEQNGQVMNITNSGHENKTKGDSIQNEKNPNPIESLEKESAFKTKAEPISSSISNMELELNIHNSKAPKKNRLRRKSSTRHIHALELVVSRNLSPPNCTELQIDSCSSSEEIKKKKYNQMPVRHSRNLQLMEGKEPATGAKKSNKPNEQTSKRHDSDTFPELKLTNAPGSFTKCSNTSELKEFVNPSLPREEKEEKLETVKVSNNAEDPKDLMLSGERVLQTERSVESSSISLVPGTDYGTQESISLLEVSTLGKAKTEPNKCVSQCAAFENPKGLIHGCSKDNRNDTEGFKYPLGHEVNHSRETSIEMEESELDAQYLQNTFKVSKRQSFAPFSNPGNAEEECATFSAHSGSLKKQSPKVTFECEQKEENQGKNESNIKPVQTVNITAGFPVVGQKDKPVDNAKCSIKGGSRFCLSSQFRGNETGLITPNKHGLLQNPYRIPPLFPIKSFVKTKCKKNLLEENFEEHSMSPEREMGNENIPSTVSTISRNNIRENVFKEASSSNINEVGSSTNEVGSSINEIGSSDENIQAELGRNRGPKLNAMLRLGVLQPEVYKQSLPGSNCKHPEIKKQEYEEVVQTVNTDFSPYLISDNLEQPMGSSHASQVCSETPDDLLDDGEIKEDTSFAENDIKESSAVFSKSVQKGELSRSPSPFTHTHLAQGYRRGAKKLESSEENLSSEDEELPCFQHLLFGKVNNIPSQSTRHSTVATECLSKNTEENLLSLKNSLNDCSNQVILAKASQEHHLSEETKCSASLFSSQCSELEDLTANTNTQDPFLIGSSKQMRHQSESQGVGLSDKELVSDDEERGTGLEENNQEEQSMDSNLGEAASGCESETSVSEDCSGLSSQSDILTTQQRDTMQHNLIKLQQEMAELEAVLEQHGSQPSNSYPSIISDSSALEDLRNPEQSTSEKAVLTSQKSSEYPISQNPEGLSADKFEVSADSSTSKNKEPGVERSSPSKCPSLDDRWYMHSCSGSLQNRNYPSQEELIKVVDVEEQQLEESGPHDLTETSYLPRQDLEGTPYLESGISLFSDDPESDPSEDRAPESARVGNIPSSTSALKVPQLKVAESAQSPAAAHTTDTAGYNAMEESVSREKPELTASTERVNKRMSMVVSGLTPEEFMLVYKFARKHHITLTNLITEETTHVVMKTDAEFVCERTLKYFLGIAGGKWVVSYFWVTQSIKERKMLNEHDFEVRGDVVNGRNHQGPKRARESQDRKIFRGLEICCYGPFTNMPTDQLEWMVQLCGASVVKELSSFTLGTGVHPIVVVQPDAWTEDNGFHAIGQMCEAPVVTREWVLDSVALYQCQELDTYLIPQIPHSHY
# UniProt P46736: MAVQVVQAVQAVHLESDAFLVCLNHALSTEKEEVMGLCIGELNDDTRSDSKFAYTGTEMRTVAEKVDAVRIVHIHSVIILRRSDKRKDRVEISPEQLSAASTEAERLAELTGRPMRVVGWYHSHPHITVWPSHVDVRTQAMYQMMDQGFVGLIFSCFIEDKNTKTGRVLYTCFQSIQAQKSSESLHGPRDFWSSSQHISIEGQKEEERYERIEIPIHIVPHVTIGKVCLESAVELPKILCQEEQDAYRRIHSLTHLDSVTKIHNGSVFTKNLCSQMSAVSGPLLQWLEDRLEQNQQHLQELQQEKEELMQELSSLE
# Biological target: SFB-BRCA1 (human) (UniProt P38398)
# Experiment: affinity purification with mass spectrometry; tandem affinity purification of SFB-BRCA1 from the chromatin fraction of HEK 293T cells, before or after IR; streptavidin sepharose, biotin elution, S-protein agarose; NETN buffer, 4 °C
substance,measurement,value
BRCC36 (from UniProt P46736 1-316),binding,binds

# These are yes or no findings as the source states them, for the method shown. In cells and extracts the contact can be indirect. Here binding means that the protein was enriched with, or labelled near, the bait; the list need not be complete.
